Values joined by “and” are separate entries in the source; they are usually repeats but may differ in a detail not shown here. Equal entries are not always repeated. The inconclusive results got no clear call from the source; some entries with a clear call stand among them for comparison. A potency beside an inconclusive call is a rough fit, not a confirmed value. Active and inactive are the calls of the source. Rule for the calls: active = hit-call score of the fitted dose curve at least 0.9, where 1 is the maximum; inconclusive = response in the unintended direction; inactive = score below 0.9.
Each molecule was assayed against rat Glutamate Metabotropic Receptor 5 (MGluR5), Grm5 (gene 24418) (UniProt P31424) (assay: NVS_GPCR_rmMGluR5: NovaScreen (NVS) G Protein-Coupled Receptor Assay for rat Glutamate Metabotropic Receptor 5 (MGluR5) (AID 2283307)).
Procedure: NVS_GPCR_rmMGluR5 is a biochemical, single-readout assay that uses extracted gene-proteins from Rat whole brain in a tissue-based cell-free assay. Measurements were taken 1.5 hours after chemical dosing in a 48-well plate.NVS_GPCR_rmMGluR5 is one of one assay component(s) measured or calculated from the NVS_GPCR_rmMGluR5 assay. It is designed to make measurements of radioligand binding, a form of binding reporter, as detected with scintillation counting signals by Filter-based radiodetection technology.Data from the assay component NVS_GPCR_rmMGluR5 was analyzed into 1 assay endpoint. This assay endpoint, NVS_GPCR_rmMGluR5, was analyzed in the positive analysis fitting direction relative to DMSO as the negative control and baseline of activity. Using a type of binding reporter, loss-of-signal activity can be used to understand changes in the binding as they relate to the gene Grm5. Furthermore, this assay endpoint can be referred to as a primary readout, because the performed assay has only produced 1 assay endpoint. To generalize the intended target to other relatable targets, this assay endpoint is annotated to the gpcr intended target family, where the subfamily is metabotropic glutamate receptor.
Binding assays used specific radioligands (tritiated, iodinated) with non-radioactive competitive displacement ligands in agonist or antagonist protocols (as indicated) and various reference compounds and inhibitors to titrate specific binding to receptors and transporters. Most enzyme assays (CYPs, kinases, phosphatases, proteases, HDACs) used recombinant protein and specific substrates (fluorescence mostly, some colorimetric and radioactive) and inhibitors, followed by a biochemical separation of substrate and product. All assays for the biochemical HTS were initially run in duplicate at a single concentration (10 uM for CYP450 assays and 25 uM for all others). Assay-chemical combinations meeting a pre-defined threshold (e.g., 30% inhibition and other criteria defined below) were then run in singleton concentration-response format with maximum concentration of 20 uM for CYPs and 50 uM for all others. Each assay was run with positive and negative controls, and concurrent controls on every plate. The follow-up (secondary) screen tested active chemical-pairs in concentration series, as well as a few additional assays not tested in the primary screen, some selected negative inactives, and several cases re-run in the concentration series for confirmatory purposes.

By UniProt entry, the sequences of proteins in these tests, tags left out.
UniProt P31424, whole entry, looked up: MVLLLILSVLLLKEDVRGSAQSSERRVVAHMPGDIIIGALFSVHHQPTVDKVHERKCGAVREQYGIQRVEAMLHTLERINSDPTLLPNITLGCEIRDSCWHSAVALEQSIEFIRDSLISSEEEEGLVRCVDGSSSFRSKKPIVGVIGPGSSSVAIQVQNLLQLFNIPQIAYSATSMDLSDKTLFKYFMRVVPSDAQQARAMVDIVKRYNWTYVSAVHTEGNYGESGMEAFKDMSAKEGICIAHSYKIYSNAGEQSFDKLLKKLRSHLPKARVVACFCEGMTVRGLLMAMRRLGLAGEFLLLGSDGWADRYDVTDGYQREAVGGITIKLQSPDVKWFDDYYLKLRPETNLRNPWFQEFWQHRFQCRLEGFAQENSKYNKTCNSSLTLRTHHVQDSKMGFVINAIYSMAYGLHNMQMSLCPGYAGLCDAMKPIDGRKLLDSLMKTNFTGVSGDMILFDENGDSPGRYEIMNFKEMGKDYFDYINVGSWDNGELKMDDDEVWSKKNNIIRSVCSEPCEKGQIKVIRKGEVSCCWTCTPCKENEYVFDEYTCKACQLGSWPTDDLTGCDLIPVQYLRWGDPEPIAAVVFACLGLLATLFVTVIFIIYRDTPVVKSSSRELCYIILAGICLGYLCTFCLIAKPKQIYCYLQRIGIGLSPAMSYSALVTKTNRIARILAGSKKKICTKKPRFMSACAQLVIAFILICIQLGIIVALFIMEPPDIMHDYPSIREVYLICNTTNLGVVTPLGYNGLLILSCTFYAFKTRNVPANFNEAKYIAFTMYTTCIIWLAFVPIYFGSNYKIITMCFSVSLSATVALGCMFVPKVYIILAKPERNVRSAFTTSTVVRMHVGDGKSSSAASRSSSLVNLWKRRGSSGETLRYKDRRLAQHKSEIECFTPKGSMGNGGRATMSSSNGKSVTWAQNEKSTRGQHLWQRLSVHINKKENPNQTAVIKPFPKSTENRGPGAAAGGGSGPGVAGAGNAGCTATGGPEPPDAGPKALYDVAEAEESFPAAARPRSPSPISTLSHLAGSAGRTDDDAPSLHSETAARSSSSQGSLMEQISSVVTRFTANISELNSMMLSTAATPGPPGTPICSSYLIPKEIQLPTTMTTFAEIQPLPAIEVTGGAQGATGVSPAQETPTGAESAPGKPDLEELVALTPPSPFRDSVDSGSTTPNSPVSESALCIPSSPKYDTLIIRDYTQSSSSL

Row | SMILES | AC50 | outcome
1 | O=C(NC(=O)c1c(F)cccc1F)Nc1cc(Cl)c(OC(F)(F)C(F)F)c(Cl)c1 | inconclusive: 1.06 µM | 
2 | CCCCOC(=O)c1ccccc1C(=O)OCCCC | inconclusive: 25 µM | inactive
3 | CC1(C)C(C=C(Cl)Cl)C1C(=O)OC(C#N)c1ccc(F)c(Oc2ccccc2)c1 (stereo not drawn) | inconclusive: 6.62 µM | 
4 | C=C(C)C(=O)[O][Sn]([CH2]CCC)([CH2]CCC)[CH2]CCC | active: 18.1 µM | 
5 | CON(C)C(=O)Nc1ccc(Cl)c(Cl)c1 | inconclusive: 25 µM | 
6 | Oc1ccc(C(c2ccc(O)cc2)(C(F)(F)F)C(F)(F)F)cc1 | inconclusive: 25 µM | 
7 | C=CCC1=C(C)C(OC(=O)C2C(C=C(C)C)C2(C)C)CC1=O (stereo not drawn) | inconclusive: 41.9 µM | 
8 | ClCC(Cl)CCl | inconclusive: 25 µM | 
9 | Oc1cc(Cl)ccc1Oc1ccc(Cl)cc1Cl | inconclusive: 25.5 µM | 
10 | O=C(O)C(Cl)(Cl)Cl | inconclusive: 12.2 µM | 
11 | CC[C@H](C)[C@H]1O[C@]2(C=C[C@@H]1C)C[C@@H]1C[C@@H](C/C=C(\C)[C@@H](O[C@H]3C[C@H](OC)[C@@H](O[C@H]4C[C@H](OC)[C@@H](NC)[C@H](C)O4)[C@H](C)O3)[C@@H](C)/C=C/C=C3\CO[C@@H]4[C@H](O)C(C)=C[C@@H](C(=O)O1)[C@]34O)O2 | inconclusive: 6.08 µM | 
12 | CCCCNC(=O)OCC#CI | inconclusive: 6.17 µM and inconclusive: 3.1 µM | 
13 | CC(C)(O)c1cnn2c(-c3ccc(F)c(-c4c(F)cccc4C#N)c3)cnc2n1 | inconclusive: 42.6 µM | 
14 | c1nc[nH]n1 | inconclusive: 25 µM | 
15 | CCC[CH2][Sn]([Cl])([CH2]CCC)[CH2]CCC | active: 25 µM | 
16 | O=[N+]([O-])c1c(Cl)c(Cl)c(Cl)c(Cl)c1Cl | inconclusive: 0.322 µM | 
17 | O=[N+]([O-])c1ccc(Cl)c(Cl)c1 | inconclusive: 25 µM | 
18 | CC(=O)[O][Hg][c]1ccccc1 |  | inactive
19 | CO[C@@H]1[C@H](OC(=O)NC(=O)CCl)CC[C@]2(CO2)[C@H]1[C@@]1(C)O[C@@H]1CC=C(C)C | inconclusive: 13.8 µM | 
20 | N#CCCCCC#N |  | inactive
21 | Cn1cc(-c2ccccc2)c(=O)c(-c2cccc(C(F)(F)F)c2)c1 |  | inactive
22 | Nc1c(Cl)c(Cl)nc(C(=O)O)c1Cl |  | inactive

Ordered by length of the SMILES (largest number first): some entries from above.
Row | SMILES | AC50 | outcome
9 | Oc1cc(Cl)ccc1Oc1ccc(Cl)cc1Cl | inconclusive: 25.5 µM | 
12 | CCCCNC(=O)OCC#CI | inconclusive: 6.17 µM and inconclusive: 3.1 µM | 
8 | ClCC(Cl)CCl | inconclusive: 25 µM | 
